Results deposited as PubChem BioAssay AID1259424 (University of Nebraska Medical Center, 2018)
In all, the deposit lists about 14,000 reagents; below is a part drawn at random. 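Higher correlation or smaller distance means closer resemblance to KSR1 loss; control wells, including KSR1 knockdowns, recur on many plates.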 Not all columns of the deposit are shown. Not given: the time to read-out.

Test: 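Find knockdowns that reproduce the expression shifts seen after KSR1 loss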 (primary screen)
Cell system: human HCT116 colon cancer cells
Knock-down reagent: siRNA pool against human genes, 50 nM
Read-out: 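Log2 levels of six mRNAs (branched-DNA multiplex), adjusted by two reference genes and the non-targeting median, then scored against the average KSR1 knockdown pattern as Pearson r and euclidean distance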
Direction: mean correlation with KSR1 profile: higher = expression change more like KSR1 knockdown

Gene	mean correlation with KSR1 profile
CD47 (CD47 molecule)	0.344
TIGD5 (tigger transposable element derived 5)	0.473
TAS2R9 (taste 2 receptor member 9)	-0.0746
NDUFC2 (NADH:ubiquinone oxidoreductase subunit C2)	-0.228
SDF2 (stromal cell derived factor 2)	-0.311
CYRIA (CYFIP related Rac1 interactor A)	0.755
SPMAP2 (sperm microtubule associated protein 2)	-0.72
SGTA	-0.329
MDFI (MyoD family inhibitor)	0.378
PMVK (phosphomevalonate kinase)	-0.148
MYH16 (myosin heavy chain 16)	0.211
CNGB1 (cyclic nucleotide gated channel subunit beta 1)	-0.623
LAMC1 (laminin subunit gamma 1)	-0.329
ACTG1 (actin gamma 1)	-0.586
MTCH2	-0.183
CTNS (cystinosin, lysosomal cystine transporter)	-0.0997
ENDOD1 (endonuclease domain containing 1)	-0.242
ZNF510 (zinc finger protein 510)	-0.191
ZNRF3 (zinc and ring finger 3)	0.752
COCH (cochlin)	-0.267

A few values from above.
MTCH2, mean correlation with KSR1 profile → -0.183
Value of SGTA in “mean correlation with KSR1 profile”: -0.329
